Laboratory results reported in patent publication US6830310B2, “Detectable markers in cationic polymeric fixers” (Hewlett-Packard Development Company, L.P., priority 2002, dated 2004).

Key:
[1] = Fluorescence of indicator under UV / IR; type: physicochemical
[2] = % reflectance of fixer+indicator printed area (Cary Spectrometer, diffuse mode); details: for Changes in %R @ ~260 nm: on HM, LL and FM
[3] = Print evaluation of fixer+indicator on HM, LL and FM media viewed under UV
[4] = Nozzle pattern observation of cationic polymer fixer spiked with marker; details: visible indicator in fixer

| Compound | Fluorescent under UV? [1] | other results |
| --- | --- | --- |
| CN(C)c1ccc2c(C(F)(F)F)cc(=O)oc2c1 [Coumarin 152] | Yes |  |
| Cc1cc(O)nc2cc(N)ccc12 [Carbostyril 124] | Yes |  |
| Cc1ccc2nc(-c3ccc(N=NNc4ccc(-c5nc6ccc(C)c(S(=O)(=O)[O-])c6s5)cc4)cc3)sc2c1S(=O)(=O)[O-].[Na+].[Na+] [Direct Yellow 9] | No |  |
| CC1(C)C(/C=C/C=C/C=C/C=C2\N(CCCCS(=O)(=O)O)c3ccc4ccccc4c3C2(C)C)=[N+](CCCCS(=O)(=O)[O-])c2ccc3ccccc3c21 [Indocyanine Green] | No |  |
| CCN(CC)CCc1c(C)c2ccc(O)cc2oc1=O.Cl [3-[2-(diethylamino)ethyl]-7-hydroxy-4-methylcoumarin hydrochloride] | Yes |  |
| Nc1ccc(C(=O)O)cc1 [4-Aminobenzoic acid (PABA), 4-Aminobenzoic acid] | No | Reflectance at ~260 nm vs media ([2]; Fortune Matte): slightly high reflectance than the media alone; Reflectance at 260 nm or so ([2]; Hammermill Fore DP, 0.1% PABA, 1 ppm Tinosorb FR): slight decrease in reflectance; Changes in %R @ ~260 nm [2]: Some changes in; Changes in %R @ ~260 nm ([2]; listed as PABA): slight difference |
| CCN=C1C=CC(=C(c2ccc(N(CC)CC)cc2)c2ccc(N(CC)CC)cc2)c2ccccc21.Cl [Victoria Blue BO] | No | Print Evaluation, visibility under IR [3]: Visible under IR |
| CCN(CC)c1ccc(/C=C/C2=[N+](C)c3ccccc3C2(C)C)cc1.[Cl-] [Basic Violet 16] |  | Loading needed to see the nozzle pattern [4]: ≥ 750 ppm |
| Cc1cc(=O)oc2cc(O)c(O)cc12 [4-Methylesculetin] | No |  |
| CN(C)c1ccc(C=Cc2ccccn2)cc1 [2-[4-(Dimethylamino)styryl]pyridine] | No |  |
| CCOc1ccc2c(ccc(/C=C/c3cccc([N+](=O)[O-])c3)[n+]2C)c1.COS(=O)(=O)[O-] [Pinacryptol Yellow] | No |  |
| CCN(CC)c1ccc2cc(-c3nc4ccccc4[nH]3)c(=O)oc2c1 [Coumarin 7] | Yes |  |
| CCN1/C(=C/C=C2\CCC(/C=C/c3sc4ccc(Cl)cc4[n+]3CC)=C2N(c2ccccc2)c2ccccc2)Sc2ccc(Cl)cc21.[O-][Cl+3]([O-])([O-])[O-] [IR140] | No |  |
| Variamine Blue | No |  |
| O=S(=O)([O-])c1cc(Nc2nc(Nc3ccccc3)nc(N(CCO)CCO)n2)ccc1/C=C/c1ccc(Nc2nc(Nc3ccccc3)nc(N(CCO)CCO)n2)cc1S(=O)(=O)[O-].[Na+].[Na+] [FluorescentBrightner28] | Yes |  |
| Cc1cc2nc3[nH]c(=O)[nH]c(=O)c3nc2cc1C [Lumichrome] | Yes |  |
| Cc1ccc2c(c1)sc(-c1ccc(N(C)C)cc1)[n+]2C.[Cl-] [Thioflavin T] | No |  |
